The results in this text go back to PubChem BioAssay AID662 (National Center for Advancing Translational Sciences (NCATS), 2007).

Molecules are shown by their SMILES. The list shows a part of the results. Further columns of the screen follow, without active or inactive calls. Most of these compounds were active or inconclusive in the main read-out, so they are no random draw. Words in brackets tell the shape of the fitted curve; partial curves, single points and poor fits give uncertain potencies.

This experiment is described as follows: Cell signaling CRE-BLA (Fsk stim). The conditions noted are these: CHO CRE-bla reporter (cAMP response element driving beta-lactamase), forskolin EC10, beta-lactamase ratio; measured here: 460 nm blue channel. In outline:
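CHO CRE-bla cells, overnight plating in Opti-MEM with 0.5% dialyzed FBS; cpd titration + EC10 NKH 477, 3 h 37 °C; CCF4 2 h RT; ex 405/em 460 vs 530 ratio → %Activity, AC50.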
Broadly, the AC50 is the concentration at which the activity in the assay is half-maximal. As to `NC(=O)CSC1=Nc2ccccc2C2=NC(CC(=O)NCc3cccs3)C(=O)N12` (stereo not drawn), the AC50 is 0.0251 µM [falling, full curve].

As for `CCOc1cc(N2CCOCC2)c(OCC)cc1NC(=O)Cc1cn2ccsc2n1`, the AC50 was 20 µM [rising, single point]. The result for `O=C(NC(Cc1ccccc1)C(=O)O)OCc1ccccc1` (stereo not drawn) reads 0.794 µM [falling, full curve]; that for `COc1cc(C(=O)OCn2nnc3ccccc3c2=O)cc(OC)c1OC`, 5.01 µM [rising, partial curve]. The result for `N#Cc1c(-c2ccccc2)nc(N2CCOCC2)[nH]c1=O` reads 20 µM [falling, single point]. As for `CCOC(=O)C1=C(CNCc2ccccc2Cl)NC(=O)NC1c1ccc2c(c1)OCO2` (stereo not drawn), the figure is 12.6 µM [rising, partial curve]; as for `Cc1nn(-c2ccccc2)c2c1P(=O)(O)/C(=C1\N(C)c3ccccc3C1(C)C)C=N2`, 12.6 µM [rising, single point]; as for `CC(=O)Nc1ccc(NC(=O)c2ccccc2N(C)S(C)(=O)=O)cc1`, 12.6 µM [falling, single point]. `c1ccc(Nc2nc3ccccc3[nH]2)nc1`: the AC50 is 0.2 µM [falling, full curve, poor fit]. As for `COC(=O)c1ccsc1NC(=O)CSc1nnnn1Cc1ccccc1`, the figure is 0.0251 µM [falling, full curve, poor fit]. As for `Cn1c(=O)[nH]c(=O)c2c1nc(Br)n2CCCSc1nc2ccccc2o1`, the figure is 7.94 µM [rising, partial curve]; as for `Cc1ccc(NC(=O)C2CCN(S(=O)(=O)c3cccc4nonc34)CC2)nc1`, 1 µM [falling, partial curve, poor fit]. Take `CCOC(=O)N1CCN(C(=O)CSCC(=O)Nc2nc(-c3ccc(OC)cc3)cs2)CC1`: the AC50 was 25.1 µM [falling, partial curve]. As for `CCOC(=O)Cc1csc(NC(=O)c2ccco2)n1`, the figure is 0.00316 µM [falling, full curve, poor fit]. As for `N#Cc1c2c(c(N3CCN(CCO)CC3)n3c1nc1ccccc13)CCCC2`, the figure is 15.8 µM [rising, partial curve]; as for `Cc1ccc2cc3cc(C(=O)NCCC(C)C)oc3nc2c1`, 0.398 µM [falling, partial curve]; as for `CCC(=O)N1CCc2cc(S(=O)(=O)NCCCN(CC)Cc3ccccc3)ccc21`, 0.0158 µM [rising, single point]. The result for `N=c1n(Cc2ccccc2)c2ccccc2n1CC(O)COc1ccccc1` (stereo not drawn) reads 2.51 µM [falling, full curve]; that for `c1ccc(CNc2ncnc3ccccc23)cc1`, 3.98 µM [falling, partial curve]. `O=C(CC1OC(=O)c2ccccc21)NC1CCCCC1` (stereo not drawn): the AC50 was 5.01 µM [falling, single point]. The result for `COc1cc(NC(=O)c2ccco2)c(OC)cc1NC(=O)Nc1cccc(Cl)c1` reads 25.1 µM [rising, partial curve]. The result for `CCCn1c(-c2ccc(F)cc2)nc2c(NCCCCN3CCCC3)nc(C)nc21` reads 6.31 µM [rising, partial curve]. As for `Cc1[nH]c(=O)[nH]c(=O)c1CSc1nnc(CCCCCNC(=O)OC(C)(C)C)o1`, the figure is 1.58 µM [falling, single point]; as for `C=CCOC(=O)Nc1c(C(=O)OC)[nH]c2ccc(Cl)cc12`, 10 µM [falling, partial curve]. In the case of `Cc1ccc(OCc2nnc(SCC(=O)Nc3cc(C)on3)n2C)cc1`, the AC50 was 0.1 µM [falling, single point].

For `COc1ccc(OC)c(S(=O)(=O)N2CCC(C(=O)Nc3ccc(C)c(C)c3)CC2)c1`, the AC50 is 12.6 µM [falling, single point]. `Cc1noc(C)c1CN1C(=O)NC(Cc2ccccc2)(Cc2ccccc2)C1=O`: the AC50 was 0.126 µM [falling, single point]. As for `O=C(CN(C(=O)CNS(=O)(=O)c1ccccc1)c1ccc2c(c1)OCCO2)NCc1ccco1`, the figure is 3.16 µM [falling, single point]; as for `O=C(Nc1cccc(C(F)(F)F)c1)c1cc(S(=O)(=O)N2CCCCC2)ccc1N1CCOCC1`, 2.51 µM [falling, full curve, poor fit].

Consider `C/C(Cl)=C\CSc1nnc2n(N)c(=O)c3ccccc3n12`, for which the concentration at half-maximal activity (AC50) is 25.1 µM [rising, single point]. As for `CCOc1ccccc1C(=O)Nc1nccs1`, the figure is 5.01 µM [rising, partial curve]; as for `Cn1c(Cc2ccccc2)nnc1SCC(=O)Nc1ccccc1N1CCOCC1`, 0.0251 µM [rising, full curve, poor fit]. The result for `COc1cccc(NC(=O)CCS(=O)(=O)c2cccs2)c1` reads 5.01 µM [falling, partial curve]; that for `CC(C)NC(=O)CSc1nnc(-c2ccc(C(C)(C)C)cc2)n1C`, 0.126 µM [falling, full curve]. As for `COC(=O)Cn1nc(-c2ccc(C)c(S(=O)(=O)N(C)C)c2)c2ccccc2c1=O`, the figure is 1.58 µM [rising, partial curve]. Take `O=C(N1CCCC1)n1c(Cc2ccccc2)nc2ccccc21`: the concentration at half-maximal activity (AC50) was 0.00631 µM [falling, full curve, poor fit]. The result for `CCOc1ccc2c(c1)c1nnc(SCC3CCCO3)nc1n2C` (stereo not drawn) reads 6.31 µM [rising, partial curve]; that for `c1ccc2[nH]c(-c3cscn3)nc2c1`, 12.6 µM [rising, single point].

On to `Cc1ccc(S(=O)(=O)NCC(=O)N(CCc2ccccc2)CC(=O)NCc2ccco2)cc1`, for which the AC50 was 10 µM [falling, partial curve]. The result for `N#Cc1cccc(-c2nc(Nc3ccccc3)c3ccccc3n2)c1` reads 6.31 µM [rising, partial curve]. As for `O=C1CSC2=NCN(c3ccc4c(c3)OCO4)CN12`, the figure is 0.0631 µM [rising, single point]; as for `COc1ccc(Oc2ncc3nc(CCc4ccccc4)c(=O)n(CCC#N)c3n2)cc1`, 12.6 µM [rising, single point]; as for `O=C(Nc1nc2nc(-c3ccccc3)cc(-c3ccccc3)n2n1)c1ccco1`, 10 µM [rising, single point].
